Some entries share one result that the patent states for a list of compounds.
System: Dundee experimental bald rats (DEBR)
Experiment: Anti-hair loss activity in Dundee experimental bald rats
Type: in vivo
Details: 10 weeks treatment (HPC 50 mg/kg on whole body once per day; CsA 10 mg/kg daily orally)

CCN(CC)CCOC(=O)c1ccccc1OC(C)=O.O=C(O)CC(O)(CC(=O)O)C(=O)O [diethylaminoethyl acetylsalicylate citric acid salt]
time until hair regrew over the whole body: 2-4 weeks
